According to article PMC11525750:
Results are given in words; binding and its absence hold for the method and conditions named. For some of these results: In cells and extracts the contact can be indirect. Some results given as binding are weak or reduced against the parent protein; the word gives no strength.

Chains of the proteins cited; added tags and fusions are not shown. Lines headed by an entry give the natural chain unless they say otherwise; changes in a name come on top. A line that says so, or that is headed by a name, gives the form on record, which may keep a tag or linker.
UniProt Q8NCD3: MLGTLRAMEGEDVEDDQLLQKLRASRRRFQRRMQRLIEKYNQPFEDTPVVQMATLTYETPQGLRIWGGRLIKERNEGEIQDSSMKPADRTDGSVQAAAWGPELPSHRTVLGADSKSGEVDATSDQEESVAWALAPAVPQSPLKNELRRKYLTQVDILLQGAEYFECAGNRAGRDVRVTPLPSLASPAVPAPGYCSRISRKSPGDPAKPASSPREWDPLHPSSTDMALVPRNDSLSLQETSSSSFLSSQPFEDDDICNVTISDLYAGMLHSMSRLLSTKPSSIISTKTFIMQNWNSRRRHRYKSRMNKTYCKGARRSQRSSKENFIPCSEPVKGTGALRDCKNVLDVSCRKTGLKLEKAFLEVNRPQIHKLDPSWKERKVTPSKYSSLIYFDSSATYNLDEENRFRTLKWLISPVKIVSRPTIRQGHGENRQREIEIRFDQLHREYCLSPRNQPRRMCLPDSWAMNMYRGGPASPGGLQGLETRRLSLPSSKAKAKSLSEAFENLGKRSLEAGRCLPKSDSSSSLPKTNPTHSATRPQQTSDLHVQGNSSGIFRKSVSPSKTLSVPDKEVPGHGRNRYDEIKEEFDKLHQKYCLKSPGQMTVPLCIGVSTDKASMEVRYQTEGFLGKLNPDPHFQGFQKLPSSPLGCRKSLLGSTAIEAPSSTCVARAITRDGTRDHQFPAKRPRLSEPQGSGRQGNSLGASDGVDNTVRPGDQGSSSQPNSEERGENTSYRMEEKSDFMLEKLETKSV
SBP-HJURP with mutations in both Cys327 and Cys457 (Q8NCD3, form named): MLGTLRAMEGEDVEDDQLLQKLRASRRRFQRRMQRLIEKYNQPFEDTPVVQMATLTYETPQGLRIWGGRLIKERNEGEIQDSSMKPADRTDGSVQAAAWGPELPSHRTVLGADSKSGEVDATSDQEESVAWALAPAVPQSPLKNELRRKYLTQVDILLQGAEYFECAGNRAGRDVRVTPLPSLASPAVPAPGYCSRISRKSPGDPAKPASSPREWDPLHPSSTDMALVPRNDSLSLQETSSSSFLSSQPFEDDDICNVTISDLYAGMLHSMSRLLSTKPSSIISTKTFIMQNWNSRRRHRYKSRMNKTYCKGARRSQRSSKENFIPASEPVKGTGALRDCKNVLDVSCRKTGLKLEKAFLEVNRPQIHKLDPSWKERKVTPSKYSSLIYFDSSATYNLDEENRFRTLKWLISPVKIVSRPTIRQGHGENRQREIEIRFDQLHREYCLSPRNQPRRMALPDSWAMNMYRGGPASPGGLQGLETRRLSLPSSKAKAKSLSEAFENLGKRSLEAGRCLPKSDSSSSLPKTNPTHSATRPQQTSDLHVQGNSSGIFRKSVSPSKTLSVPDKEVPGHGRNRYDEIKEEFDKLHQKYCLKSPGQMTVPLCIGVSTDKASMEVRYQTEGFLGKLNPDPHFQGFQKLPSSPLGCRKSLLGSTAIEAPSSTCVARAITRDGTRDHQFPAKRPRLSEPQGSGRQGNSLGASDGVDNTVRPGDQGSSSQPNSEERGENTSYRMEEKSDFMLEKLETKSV

Experiments:
[1] = biological target: Holliday junction recognition protein (HJURP) (human (endogenous in C4-2 and PC3)) (UniProt Q8NCD3); assay: co-IP; endogenous proteins in C4-2 and PC3 lysates, primary antibody 4 h at 4 °C, protein-A/G beads overnight, western blotting
[2] = biological target: peroxiredoxin 1 (PRDX1) (human (endogenous in C4-2 and PC3)) (UniProt Q06830); assay: non-reducing immunoblotting; C4-2 and PC3 cells (HJURP knockout or rescued), free thiols blocked with 20 mM MMTS, lysate in loading buffer without reducing agents, SDS-PAGE; disulfide-linked PRDX1 dimer
[3] = biological target: SBP-HJURP (UniProt Q8NCD3); assay: pull-down; SBP-tagged protein transfected into C4-2 or PC3 cells, H2O2 for 2 min, free thiols blocked with 20 mM MMTS, lysate on SA-Sepharose beads, washes with 1 % Triton X-100 and 1 M urea, elution with biotin, non-reducing immunoblotting (disulfide-linked conjugates)
[4] = biological target: SBP-HJURP with mutations in both Cys327 and Cys457 (UniProt Q8NCD3); assay: as above

B1: peroxiredoxin 1 (PRDX1) (enzyme, UniProt Q06830 1-199)
chain: MSSGNAKIGHPAPNFKATAVMPDGQFKDISLSDYKGKYVVFFFYPLDFTFVCPTEIIAFSDRAEEFKKLNCQVIGASVDSHFCHLAWVNTPKKQGGLGPMNIPLVSDPKRTIAQDYGVLKADEGISFRGLFIIDDKGILRQITVNDLPVGRSVDETLRLVQAFQFTDKHGEVCPAGWKPGSDTIKPDVQKSKEYFSKQK
Which results are given for B1?
binding [1]: binds; binding [2]: binds; binding [3]: binds; binding [4]: no binding
